According to the supplement of paper PMC8728848:
The list shows a part of the results.

What was measured:
Assay in all cases: glycan array binding signal (z-score within array); higher = stronger binding
Details in all cases: glycan notation: IUPAC condensed, linker removed
[1] = target: Gal(b1-4)GlcNAc(b1-2)[Gal(b1-4)GlcNAc(b1-6)]Man(a1-6)[Gal(b1-4)GlcNAc(b1-2)Man(a1-3)]Man(b1-4)GlcNAc(b1-4)[Fuc(a1-6)]GlcNAc
Procedure, shortened: (§1)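 Arrays were curated from the Consortium for Functional Glycomics database, 3228 in total, and kept only where the protein sequence was available. Binding is expressed as a within-array Z-score. This score was averaged across arrays of the same protein sequence at different concentrations or buffers and across linkers, and negative values can be read as non-binding.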

[2] = target: Gal(b1-4)GlcNAc(b1-2)[Gal(b1-4)GlcNAc(b1-6)]Man(a1-6)[GlcNAc(b1-4)][Gal(b1-4)GlcNAc(b1-2)Man(a1-3)]Man(b1-4)GlcNAc(b1-4)GlcNAc
Procedure, shortened: as §1

[3] = target: Gal(b1-4)GlcNAc(b1-2)[Gal(b1-4)GlcNAc(b1-6)]Man(a1-6)[GlcNAc(b1-4)][Gal(b1-4)GlcNAc(b1-2)[Gal(b1-4)GlcNAc(b1-4)]Man(a1-3)]Man(b1-4)GlcNAc(b1-4)[Fuc(a1-6)]GlcNAc
Procedure, shortened: as §1

[4] = target: Gal(b1-4)GlcNAc(b1-3)Gal(b1-3)GalNAc
Procedure, shortened: as §1

[5] = target: Gal(b1-4)GlcNAc(b1-3)Gal(b1-3)GlcNAc
Procedure, shortened: as §1

[6] = target: Gal(b1-4)GlcNAc(b1-3)Gal(b1-4)Glc
Procedure, shortened: as §1

[7] = target: Gal(b1-4)GlcNAc(b1-3)Gal(b1-4)GlcNAc
Procedure, shortened: as §1

[8] = target: Gal(b1-4)GlcNAc(b1-3)Gal(b1-4)GlcNAc(b1-2)Man(a1-3)[Gal(b1-4)GlcNAc(b1-3)Gal(b1-4)GlcNAc(b1-2)Man(a1-6)]Man(b1-4)GlcNAc(b1-4)GlcNAc
Procedure, shortened: as §1

[9] = target: Gal(b1-4)GlcNAc(b1-3)Gal(b1-4)GlcNAc(b1-2)Man(a1-3)[Gal(b1-4)GlcNAc(b1-3)Gal(b1-4)GlcNAc(b1-2)Man(a1-6)]Man(b1-4)GlcNAc(b1-4)[Fuc(a1-6)]GlcNAc
Procedure, shortened: as §1

[10] = target: Gal(b1-4)GlcNAc(b1-3)Gal(b1-4)GlcNAc(b1-2)[Gal(b1-4)GlcNAc(b1-3)Gal(b1-4)GlcNAc(b1-6)]Man(a1-6)[Gal(b1-4)GlcNAc(b1-3)Gal(b1-4)GlcNAc(b1-2)Man(a1-3)]Man(b1-4)GlcNAc(b1-4)GlcNAc
Procedure, shortened: as §1

[11] = target: Gal(b1-4)GlcNAc(b1-3)Gal(b1-4)GlcNAc(b1-2)[Gal(b1-4)GlcNAc(b1-3)Gal(b1-4)GlcNAc(b1-6)]Man(a1-6)[Gal(b1-4)GlcNAc(b1-3)Gal(b1-4)GlcNAc(b1-2)Man(a1-3)]Man(b1-4)GlcNAc(b1-4)[Fuc(a1-6)]GlcNAc
Procedure, shortened: as §1

[12] = target: Gal(b1-4)GlcNAc(b1-3)Gal(b1-4)GlcNAc(b1-3)Gal(b1-4)GlcNAc
Procedure, shortened: as §1

[13] = target: Gal(b1-4)GlcNAc(b1-3)Gal(b1-4)GlcNAc(b1-3)Gal(b1-4)GlcNAc(b1-2)Man(a1-3)[Gal(b1-4)GlcNAc(b1-3)Gal(b1-4)GlcNAc(b1-3)Gal(b1-4)GlcNAc(b1-2)Man(a1-6)]Man(b1-4)GlcNAc(b1-4)GlcNAc
Procedure, shortened: as §1

[14] = target: Gal(b1-4)GlcNAc(b1-3)Gal(b1-4)GlcNAc(b1-3)Gal(b1-4)GlcNAc(b1-2)Man(a1-3)[Gal(b1-4)GlcNAc(b1-3)Gal(b1-4)GlcNAc(b1-3)Gal(b1-4)GlcNAc(b1-2)Man(a1-6)]Man(b1-4)GlcNAc(b1-4)[Fuc(a1-6)]GlcNAc
Procedure, shortened: as §1

[15] = target: Gal(b1-4)GlcNAc(b1-3)Gal(b1-4)GlcNAc(b1-3)Gal(b1-4)GlcNAc(b1-2)[Gal(b1-4)GlcNAc(b1-3)Gal(b1-4)GlcNAc(b1-3)Gal(b1-4)GlcNAc(b1-6)]Man(a1-6)[Gal(b1-4)GlcNAc(b1-3)Gal(b1-4)GlcNAc(b1-3)Gal(b1-4)GlcNAc(b1-2)Man(a1-3)]Man(b1-4)GlcNAc(b1-4)[Fuc(a1-6)]GlcNAc
Procedure, shortened: as §1

[16] = target: Gal(b1-4)GlcNAc(b1-3)Gal(b1-4)GlcNAc(b1-3)Gal(b1-4)GlcNAc(b1-3)Gal(b1-4)GlcNAc(b1-2)Man(a1-3)[Gal(b1-4)GlcNAc(b1-3)Gal(b1-4)GlcNAc(b1-3)Gal(b1-4)GlcNAc(b1-3)Gal(b1-4)GlcNAc(b1-2)Man(a1-6)]Man(b1-4)GlcNAc(b1-4)GlcNAc
Procedure, shortened: as §1

[17] = target: Gal(b1-4)GlcNAc(b1-3)Gal(b1-4)GlcNAc(b1-3)Gal(b1-4)GlcNAc(b1-3)Gal(b1-4)GlcNAc(b1-2)Man(a1-3)[Gal(b1-4)GlcNAc(b1-3)Gal(b1-4)GlcNAc(b1-3)Gal(b1-4)GlcNAc(b1-3)Gal(b1-4)GlcNAc(b1-2)Man(a1-6)]Man(b1-4)GlcNAc(b1-4)[Fuc(a1-6)]GlcNAc
Procedure, shortened: as §1

[18] = target: Gal(b1-4)GlcNAc(b1-3)Gal(b1-4)GlcNAc(b1-3)Gal(b1-4)GlcNAc(b1-3)Gal(b1-4)GlcNAc(b1-2)[Gal(b1-4)GlcNAc(b1-3)Gal(b1-4)GlcNAc(b1-3)Gal(b1-4)GlcNAc(b1-3)Gal(b1-4)GlcNAc(b1-6)]Man(a1-6)[Gal(b1-4)GlcNAc(b1-3)Gal(b1-4)GlcNAc(b1-3)Gal(b1-4)GlcNAc(b1-3)Gal(b1-4)GlcNAc(b1-2)Man(a1-3)]Man(b1-4)GlcNAc(b1-4)[Fuc(a1-6)]GlcNAc
Procedure, shortened: as §1

[19] = target: Gal(b1-4)GlcNAc(b1-3)Gal(b1-4)GlcNAc(b1-3)Gal(b1-4)GlcNAc(b1-3)Gal(b1-4)GlcNAc(b1-3)Gal(b1-4)GlcNAc(b1-2)Man(a1-3)[Gal(b1-4)GlcNAc(b1-3)Gal(b1-4)GlcNAc(b1-3)Gal(b1-4)GlcNAc(b1-3)Gal(b1-4)GlcNAc(b1-3)Gal(b1-4)GlcNAc(b1-2)Man(a1-6)]Man(b1-4)GlcNAc(b1-4)GlcNAc
Procedure, shortened: as §1

[20] = target: Gal(b1-4)GlcNAc(b1-3)Gal(b1-4)GlcNAc(b1-3)Gal(b1-4)GlcNAc(b1-3)Gal(b1-4)GlcNAc(b1-3)Gal(b1-4)GlcNAc(b1-2)Man(a1-3)[Gal(b1-4)GlcNAc(b1-3)Gal(b1-4)GlcNAc(b1-3)Gal(b1-4)GlcNAc(b1-3)Gal(b1-4)GlcNAc(b1-3)Gal(b1-4)GlcNAc(b1-2)Man(a1-6)]Man(b1-4)GlcNAc(b1-4)[Fuc(a1-6)]GlcNAc
Procedure, shortened: as §1

[21] = target: Gal(b1-4)GlcNAc(b1-3)Gal(b1-4)GlcNAc(b1-3)Gal(b1-4)GlcNAc(b1-3)Gal(b1-4)GlcNAc(b1-3)Gal(b1-4)GlcNAc(b1-2)[Gal(b1-4)GlcNAc(b1-3)Gal(b1-4)GlcNAc(b1-3)Gal(b1-4)GlcNAc(b1-3)Gal(b1-4)GlcNAc(b1-3)Gal(b1-4)GlcNAc(b1-6)]Man(a1-6)[Gal(b1-4)GlcNAc(b1-3)Gal(b1-4)GlcNAc(b1-3)Gal(b1-4)GlcNAc(b1-3)Gal(b1-4)GlcNAc(b1-3)Gal(b1-4)GlcNAc(b1-2)Man(a1-3)]Man(b1-4)GlcNAc(b1-4)[Fuc(a1-6)]GlcNAc
Procedure, shortened: as §1

[22] = target: Gal(b1-4)GlcNAc(b1-3)Gal(b1-4)GlcNAc(b1-3)Gal(b1-4)GlcNAc(b1-3)Gal(b1-4)GlcNAc(b1-3)Gal(b1-4)GlcNAc(b1-3)Gal(b1-4)GlcNAc(b1-2)Man(a1-3)[Gal(b1-4)GlcNAc(b1-3)Gal(b1-4)GlcNAc(b1-3)Gal(b1-4)GlcNAc(b1-3)Gal(b1-4)GlcNAc(b1-3)Gal(b1-4)GlcNAc(b1-3)Gal(b1-4)GlcNAc(b1-2)Man(a1-6)]Man(b1-4)GlcNAc(b1-4)GlcNAc
Procedure, shortened: as §1

[23] = target: Gal(b1-4)GlcNAc(b1-3)Gal(b1-4)GlcNAc(b1-3)GalNAc
Procedure, shortened: as §1

B1: DCIR1 (Mus musculus), Q9QZ15 (protein)
chain: MASEITYAEVKFKNESNSLHTYSESPAAPREKPIRDLRKPGSPSLLLTSLMLLLLLLAITFLVAFIIYFQKYSQLLEEKKAAKNIMHNELNCTKSVSPMEDKVWSCCPKDWRLFGSHCYLVPTVSSSASWNKSEENCSRMGAHLVVIQSQEEQDFITGILDTHAAYFIGLWDTGHRQWQWVDQTPYEESITFWHNGEPSSGNEKCATIIYRWKTGWGWNDISCSLKQKSVCQMKKINL
[1]
  glycan array binding signal (z-score): -0.037
[2]
  glycan array binding signal (z-score): -0.446
[3]
  glycan array binding signal (z-score): -0.026
[4]
  glycan array binding signal (z-score): -0.978
[5]
  glycan array binding signal (z-score): -0.389
[6]
  glycan array binding signal (z-score): -0.63
[7]
  glycan array binding signal (z-score): -0.298
[8]
  glycan array binding signal (z-score): 1.45
[9]
  glycan array binding signal (z-score): 0.884
[10]
  glycan array binding signal (z-score): 1.13
[11]
  glycan array binding signal (z-score): 0.06
[12]
  glycan array binding signal (z-score): 0.272
[13]
  glycan array binding signal (z-score): 0.668
[14]
  glycan array binding signal (z-score): -0.075
[15]
  glycan array binding signal (z-score): -0.524
[16]
  glycan array binding signal (z-score): -0.452
[17]
  glycan array binding signal (z-score): -0.537
[18]
  glycan array binding signal (z-score): 2.04
[19]
  glycan array binding signal (z-score): -0.475
[20]
  glycan array binding signal (z-score): 2.35
[21]
  glycan array binding signal (z-score): 0.085
[22]
  glycan array binding signal (z-score): -0.907
[23]
  glycan array binding signal (z-score): -0.721
